Results from article PMC5557796, “Ligand binding modes from low resolution GPCR models and mutagenesis: chicken bitter taste receptor as a test-case” (Scientific Reports, 2017).

Molecular target: T1, ggTas2r1 (Gallus gallus, UniProt Q2AB83)
T1 construct: gene TAS2R40; full-length receptor with in-frame N-terminal sst3-tag and C-terminal hsv-tag in pcDNA5/FRT; transient in HEK 293T stably expressing chimeric Galpha16gust44
T1 sequence (Q2AB83 1-311): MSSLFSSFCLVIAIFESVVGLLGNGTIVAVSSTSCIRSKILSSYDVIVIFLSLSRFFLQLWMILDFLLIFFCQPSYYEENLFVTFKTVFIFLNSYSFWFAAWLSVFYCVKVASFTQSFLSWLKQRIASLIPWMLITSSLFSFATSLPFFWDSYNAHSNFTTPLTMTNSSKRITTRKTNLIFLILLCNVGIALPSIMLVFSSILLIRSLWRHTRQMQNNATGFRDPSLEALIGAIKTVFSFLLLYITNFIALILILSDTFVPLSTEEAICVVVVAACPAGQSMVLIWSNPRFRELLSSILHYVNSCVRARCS
Assay: FLIPR calcium mobilization, Fluo4-AM
Format: cell-based
Settings: agonist; HEK 293T with Galpha16gust44

Structure (SMILES): CN(C)CCOC(c1ccccc1)c1ccccc1 [diphenhydramine]
- dose-response ΔF/F: Dose-response relations for the specified compounds in cells expressing point-mutated and native ggTas2r1 constructs
